In PubChem BioAssay AID504444 (National Center for Advancing Translational Sciences (NCATS), 2011):
Among all 360,000 compounds or so, about 7,500 (2.1%) were called active. The inconclusive results got no clear call from the source; some entries with a clear call stand among them for comparison. Calls follow the shape of the dose curve; as a rule, active = well fitted inhibition curve with a large enough effect; inconclusive = small, poorly fitted or top-dose-only effect, or effect the other way; inactive = flat fitted curve, though single readings scatter. Where the call is inconclusive, the potency comes from a doubtful curve fit.

Assay: Nrf2 qHTS screen for inhibitors; also: nearly all actives have a fitted effect of over 60% in size
Details: A549 ARE-Fluc reporter, luciferase luminescence, 18-24 h; activity change, negative = inhibition: at 46 µM (top of the series)
Procedure, shortened: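 Concentration-response testing used A549 ARE_Fluc cells at 5000 cells/well. Following an 18-24 h compound incubation, viability was read by fluorescence (Ex 405/Em 525) and luciferase output by luminescence.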
% is scaled to controls: 0 for no effect and ±100 for the full control effect; potency is read from the fitted curve at half-maximal effect.

SMILES	Potency	activity change, negative = inhibition
Cc1cccc(NC(=O)C2CCCN(S(=O)(=O)c3cccc4nsnc34)C2)c1 (stereo unspecified)	inconclusive: 16.4 µM [falling, single point]	
N#Cc1nc(COc2ccc(-c3ccccc3)cc2)oc1NCc1cccnc1	active: 13 µM	
O=C(CS(=O)(=O)c1ccccc1)N1CCc2ccccc21	inconclusive: 7.31 µM [activator, partial curve, poor fit]	
CNC(=O)COc1ccc(S(=O)(=O)Nc2ccc(OC)cc2)cc1		inactive: -5.71%
Cc1cc(/C=C(\C#N)C(=O)Nc2ccccc2)c(C)n1-c1ccc(F)cc1		inactive: 1.37%
Cc1ccc(OCC(=O)NC(=S)Nc2ccccn2)c(Br)c1	inconclusive: 1.46 µM [activator, partial curve, poor fit]	
COc1ccccc1NC(=O)c1cc2c(CO)cnc(C)c2oc1=Nc1cc(OC)c(OC)c(OC)c1		inactive: 8.64%
COc1ccc(Cl)cc1NC(=S)N(Cc1ccccc1C)CC1CCC(C(=O)O)CC1 (stereo unspecified)	inconclusive: 0.731 µM [activator, full curve, poor fit]	
Cc1ccc(C)c(N2CCN(C(=O)CCc3nc(-c4cccc(Br)c4)no3)CC2)c1		inactive: 1.3%
CCCCCC(=O)NC(=S)NC1C2CC3CC(C2)CC1C3 (stereo unspecified)	inconclusive: 0.731 µM [activator, full curve, poor fit]	
N#C/C(=C(/O)Cc1cccc2ccccc12)c1nc2ccccc2s1	inconclusive: 16.4 µM [falling, single point]	
Cc1ccc(C)c(OCCCC(=O)NC2CCCCC2)c1		inactive: -24.8%
Cc1ccc(C)c(Nc2nn3c(=O)c4ccc(C(=O)N(C)Cc5ccccc5)cc4nc3s2)c1	inconclusive: 29.1 µM [falling, single point]	
COc1ccc2c(c1)c(=O)oc1cc(OC(C(=O)O)c3ccccc3)ccc12 (stereo unspecified)		inactive: 2.26%
O=C1/C(=C/c2ccco2)N=C(N2CCCCC2)N1c1ccccc1	inconclusive: 2.91 µM [activator, partial curve, poor fit]	
CCOC(=O)[C@@H]1[C@H]2COc3ccc(Br)cc3[C@@H]2N2C(=O)N(c3ccc(OC)cc3)C(=O)[C@@]12C	inconclusive: 20.6 µM [falling, single point]	
CCOC(=O)C1=C(NC(=S)NC(=O)c2ccccc2)c2ccccc2CC1(C)CC (stereo unspecified)	inconclusive: 2.06 µM [falling, partial curve, poor fit]	
CC(NC(=O)/C=C/c1ccco1)c1nc2ccccc2n1Cc1cccc(Cl)c1 (stereo unspecified)		inactive: -1.72%
COc1ccc(NC(=O)Nc2ccc(CC(=O)O)cc2)cc1	inconclusive: 10.3 µM [falling, partial curve, poor fit]	
C#CCCC(=O)c1ccccc1/C=[N+](\[O-])c1ccccc1		inactive: -13.1%
Nc1nc2ccccc2nc1N1CCCC1	inconclusive: 1.64 µM [activator, partial curve, poor fit]	
COc1ccc(CNC(=O)c2ccc(NC(=O)N3CCSc4ncccc43)cc2)c(OC)c1	inconclusive: 25.9 µM [falling, single point]	

SMILES	Potency	activity change, negative = inhibition
Cc1sc(NC(=O)c2ccco2)c(C(=O)c2ccc(Cl)cc2)c1C	inconclusive: 20.6 µM [falling, partial curve, poor fit]	
COc1ccc(NC(=O)COc2ccc3oc(=O)cc(C)c3c2)cc1	inconclusive: 20.6 µM [falling, single point]	
COc1ccc(-n2nc(C(=O)NCC(=O)N3CCCC(C)C3)c3ccccc3c2=O)cc1 (stereo unspecified)	inconclusive: 2.91 µM [activator, partial curve, poor fit]	
C=CCNc1nc(-c2ccccc2)nc(-n2ccnc2)n1	inconclusive: 18.4 µM [falling, single point]	
CN(CCN1CCOCC1)C(=O)CC1C(=O)NCCN1Cc1ccccc1F (stereo unspecified)	inconclusive: 5.17 µM [falling, single point]	
COc1ccc(C(=O)CC(=O)C(=O)Nc2ccc(C)c(Cl)c2)cc1	inconclusive: 14.6 µM [activator, partial curve, poor fit]	
CCOc1ccc2oc(=O)cc(CN3CCN(C(=O)c4cccc(Cl)c4)CC3)c2c1	inconclusive: 13 µM [activator, single point]	
COc1ccccc1C1CC(c2c(-c3ccccc3)c3cc(Cl)ccc3[nH]c2=O)=NN1S(C)(=O)=O (stereo unspecified)	inconclusive: 29.1 µM [falling, single point]	
Cc1cnc(C(=O)Nc2ccc(N3CCN(C(=O)OC(C)(C)C)CC3)cc2)cn1	inconclusive: 2.06 µM [falling, full curve]	
C#CCSc1nnc(-c2ccc(OC)cc2)o1	inconclusive: 0.58 µM [activator, full curve]	
O=C(NCc1ccccc1F)c1cc2ccccn2n1	inconclusive: 9.2 µM [activator, partial curve]	
COc1c(N2CCN(C(=S)NC3CC4CCC3C4)C(C)C2)c(F)cc2c(=O)c(C(=O)O)cn(C3CC3)c12 (stereo unspecified)	inconclusive: 18.4 µM [falling, single point]	
Cc1cc(C)c(NC(=S)N(CCN(C)C)C(C)c2cccnc2)c(C)c1 (stereo unspecified)		inactive: -1.69%
C/C=C/c1ccc(OCC(=O)Nc2ccc(OC)c(OC)c2)c(OC)c1	inconclusive: 29.1 µM [falling, single point]	
CCOc1ccc(N(CC(=O)Nc2ccc(C)c(C)c2)S(C)(=O)=O)cc1	inconclusive: 8.2 µM [activator, partial curve]	
Brc1ccccc1-c1nnc(-c2cccnc2)o1	inconclusive: 8.2 µM [activator, partial curve]	
Cc1ccc(C(=O)Nc2ccc(Br)c(C(F)(F)F)c2)cc1	active: 1.64 µM	
Cc1cccc(-n2ncc3c(NCc4cccnc4)ncnc32)c1	inconclusive: 29.1 µM [falling, single point]	
COc1ccc(NC(=S)Nc2ccccn2)cc1	inconclusive: 10.3 µM [activator, partial curve]	
Cc1nn(-c2cc(C(F)(F)F)ccc2Cl)c2nc(C(Cl)(Cl)Cl)[nH]c(=O)c12	inconclusive: 10.3 µM [falling, partial curve, poor fit]	
Cc1ccnc2nc(C(=O)OCC(=O)Nc3ccc4c(c3)OC(F)(F)O4)nn12	inconclusive: 1.46 µM [falling, partial curve]	
CC1Cc2ccccc2N1C(=O)Cn1cnc2c1c(=O)n(C)c(=O)n2C (stereo unspecified)	inconclusive: 9.2 µM [falling, partial curve, poor fit]	

SMILES	Potency	activity change, negative = inhibition
CC1CCCCN1C(=O)c1ccc(C(=O)c2ccccc2)cc1 (stereo unspecified)		inactive: -12.2%
CC(C)CNC(=O)c1cccc(NC(=O)Cc2ccc(Br)cc2)c1	inconclusive: 20.6 µM [falling, partial curve]	
COc1ccc2cc(C(=O)C3CCCN(C(=O)c4ccnn4C)C3)ccc2c1 (stereo unspecified)	inconclusive: 18.4 µM [falling, partial curve, poor fit]	
Cc1cc(C)cc(OCC(=O)OCC(=O)NCCC2=CCCCC2)c1	inconclusive: 3.66 µM [falling, partial curve, poor fit]	
CCC(C)N1C(=O)S/C(=C/c2ccc3c(c2)n(C)c(=O)n3C)C1=O (stereo unspecified)	inconclusive: 14.6 µM [falling, partial curve]	
O=C(c1ccc(Br)cc1)N(Cc1ccco1)C1CCS(=O)(=O)C1 (stereo unspecified)	inconclusive: 29.1 µM [activator, single point]	
COc1cc2c(cc1OC)C(C)N(C(=O)c1ccc(Br)o1)CC2 (stereo unspecified)	inconclusive: 23.1 µM [falling, partial curve, poor fit]	
COc1ccc(CNC(=O)c2ccc(NC(=O)N3CCCCc4ccccc43)cc2)c(OC)c1	inconclusive: 0.146 µM [activator, full curve, poor fit]	
COc1ccc(-c2noc(CN3CCCC(OCc4ccccn4)C3)n2)cc1 (stereo unspecified)	inconclusive: 18.4 µM [falling, single point]	
COc1ccc(/C(=C/Nc2cccc(Br)c2)C(C)=O)cc1OC	inconclusive: 29.1 µM [falling, single point]	
COc1ccc(CCNc2oc(COc3ccc(F)cc3)nc2C#N)cc1		inactive: -23.9%
O=C(NC1CCCC1)C(c1ccc(O)cc1)N(CC1CCCO1)C(=O)C1COc2ccccc2O1 (stereo unspecified)		inactive: 5.83%
CCOc1ccc(NC(=S)NCCCc2ccccc2)cc1	inconclusive: 2.59 µM [falling, full curve]	
O=C(CN1C2=NCCN2c2ccccc21)c1ccc2c(c1)OCO2		inactive: 18%
CCOP(=O)(c1ccccc1)c1nc(-c2ccccc2Cl)oc1N1CCCCC1 (stereo unspecified)	inconclusive: 29.1 µM [falling, single point]	
O=C(c1cccc(C(=O)N(c2ccccn2)C2CCCCC2)c1)N(c1ccccn1)C1CCCCC1	active: 16.4 µM	
O=C(Nc1ccc(N2CCOCC2)cc1)c1ccc2ncsc2c1	inconclusive: 1.84 µM [activator, full curve]	
CCOc1cccc(NC(=O)C2CC(=O)N(C)C(=Nc3cccc(F)c3)S2)c1 (stereo unspecified)	inconclusive: 23.1 µM [falling, single point]	
Cc1cccc(CN2C(=O)NC(c3ccccc3)(c3ccccc3)C2=O)c1	inconclusive: 23.1 µM [falling, single point]	
Cn1nc(CC(=O)NC2CCCCCC2)c2ccccc2c1=O	active: 18.4 µM	
O=C(Nc1cccc(C(=O)N2CCCC2)c1)C1CCCC1		inactive: 6.21%
Cc1c(C)c2cc(Cl)c(OCC(=O)NCCCn3ccnc3)cc2oc1=O	inconclusive: 20.6 µM [falling, partial curve, poor fit]	

Single records, from the list above:
Cc1cccc(CN2C(=O)NC(c3ccccc3)(c3ccccc3)C2=O)c1 as listed: Potency: inconclusive: 23.1 µM [falling, single point]
Cc1cc(C)cc(OCC(=O)OCC(=O)NCCC2=CCCCC2)c1 as listed: Potency: inconclusive: 3.66 µM [falling, partial curve, poor fit]
O=C1/C(=C/c2ccco2)N=C(N2CCCCC2)N1c1ccccc1 as listed: Potency: inconclusive: 2.91 µM [activator, partial curve, poor fit]
C/C=C/c1ccc(OCC(=O)Nc2ccc(OC)c(OC)c2)c(OC)c1 as listed: Potency: inconclusive: 29.1 µM [falling, single point]
